The supplement of paper PMC12819154, “High-throughput peptide-centric local stability assay extends protein–ligand identification to membrane proteins, tissues and bacteria” (Nature Structural & Molecular Biology, 2025)
The list shows a part of the results. Small differences around the control level are noise.

By UniProt entry, the sequences of proteins in these tests, tags left out. Where a name states a change or a piece, a line headed by the entry shows the natural chain unless it says otherwise.
UniProt Q8WWH5: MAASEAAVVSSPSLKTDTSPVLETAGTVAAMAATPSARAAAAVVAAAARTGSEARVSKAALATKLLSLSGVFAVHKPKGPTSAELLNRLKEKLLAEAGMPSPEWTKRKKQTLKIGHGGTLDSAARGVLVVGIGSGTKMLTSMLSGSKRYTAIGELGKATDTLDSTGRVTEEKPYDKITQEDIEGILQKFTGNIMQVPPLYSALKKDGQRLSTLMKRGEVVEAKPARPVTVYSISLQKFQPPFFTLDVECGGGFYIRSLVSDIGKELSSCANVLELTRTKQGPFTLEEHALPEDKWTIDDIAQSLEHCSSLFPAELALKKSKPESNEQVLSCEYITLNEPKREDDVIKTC
UniProt Q92551: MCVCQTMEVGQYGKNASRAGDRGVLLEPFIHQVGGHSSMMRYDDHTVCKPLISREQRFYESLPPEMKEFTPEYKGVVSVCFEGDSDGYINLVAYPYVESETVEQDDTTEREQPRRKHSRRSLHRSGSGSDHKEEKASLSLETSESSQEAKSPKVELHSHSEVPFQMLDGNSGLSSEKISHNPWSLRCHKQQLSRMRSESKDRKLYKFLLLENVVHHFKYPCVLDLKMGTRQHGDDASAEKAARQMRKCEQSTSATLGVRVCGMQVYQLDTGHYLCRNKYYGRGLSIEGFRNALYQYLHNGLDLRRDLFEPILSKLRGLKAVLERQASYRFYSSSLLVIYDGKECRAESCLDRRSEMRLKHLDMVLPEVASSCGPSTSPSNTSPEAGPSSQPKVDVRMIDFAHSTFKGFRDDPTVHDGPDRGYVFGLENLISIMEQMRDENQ
UniProt Q8TEV9: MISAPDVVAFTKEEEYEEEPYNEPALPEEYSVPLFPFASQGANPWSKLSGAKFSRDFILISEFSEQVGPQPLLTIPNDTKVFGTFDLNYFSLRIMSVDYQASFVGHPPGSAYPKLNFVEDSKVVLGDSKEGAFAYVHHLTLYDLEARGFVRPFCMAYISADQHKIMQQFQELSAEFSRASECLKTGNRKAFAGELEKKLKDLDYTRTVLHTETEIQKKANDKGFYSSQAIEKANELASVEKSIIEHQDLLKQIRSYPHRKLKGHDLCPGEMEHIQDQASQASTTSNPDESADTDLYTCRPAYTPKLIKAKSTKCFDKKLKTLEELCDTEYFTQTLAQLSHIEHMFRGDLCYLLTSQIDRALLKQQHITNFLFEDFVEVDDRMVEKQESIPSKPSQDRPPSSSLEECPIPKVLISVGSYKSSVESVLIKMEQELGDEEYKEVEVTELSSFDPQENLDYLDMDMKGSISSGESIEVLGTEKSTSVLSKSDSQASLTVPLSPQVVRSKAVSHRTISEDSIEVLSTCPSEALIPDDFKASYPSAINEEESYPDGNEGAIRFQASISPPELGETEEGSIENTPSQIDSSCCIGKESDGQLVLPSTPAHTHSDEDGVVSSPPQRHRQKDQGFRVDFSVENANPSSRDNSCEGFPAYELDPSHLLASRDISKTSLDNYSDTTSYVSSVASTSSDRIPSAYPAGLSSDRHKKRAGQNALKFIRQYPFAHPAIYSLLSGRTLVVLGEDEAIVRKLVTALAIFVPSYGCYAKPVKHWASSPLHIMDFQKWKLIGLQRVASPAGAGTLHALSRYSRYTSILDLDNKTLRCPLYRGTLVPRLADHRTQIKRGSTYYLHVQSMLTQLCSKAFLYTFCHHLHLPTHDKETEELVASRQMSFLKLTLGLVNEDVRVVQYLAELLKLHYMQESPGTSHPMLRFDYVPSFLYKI
UniProt Q8WUX2: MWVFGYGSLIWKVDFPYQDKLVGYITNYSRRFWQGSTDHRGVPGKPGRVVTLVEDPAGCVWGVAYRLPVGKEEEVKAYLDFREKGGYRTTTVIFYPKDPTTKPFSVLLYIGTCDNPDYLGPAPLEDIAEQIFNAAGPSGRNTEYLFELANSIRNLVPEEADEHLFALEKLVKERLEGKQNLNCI
UniProt Q8WVK7: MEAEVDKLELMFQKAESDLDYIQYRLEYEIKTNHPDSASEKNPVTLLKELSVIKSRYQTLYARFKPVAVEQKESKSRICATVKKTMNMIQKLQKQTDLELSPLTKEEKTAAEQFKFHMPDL
UniProt Q8TCU4: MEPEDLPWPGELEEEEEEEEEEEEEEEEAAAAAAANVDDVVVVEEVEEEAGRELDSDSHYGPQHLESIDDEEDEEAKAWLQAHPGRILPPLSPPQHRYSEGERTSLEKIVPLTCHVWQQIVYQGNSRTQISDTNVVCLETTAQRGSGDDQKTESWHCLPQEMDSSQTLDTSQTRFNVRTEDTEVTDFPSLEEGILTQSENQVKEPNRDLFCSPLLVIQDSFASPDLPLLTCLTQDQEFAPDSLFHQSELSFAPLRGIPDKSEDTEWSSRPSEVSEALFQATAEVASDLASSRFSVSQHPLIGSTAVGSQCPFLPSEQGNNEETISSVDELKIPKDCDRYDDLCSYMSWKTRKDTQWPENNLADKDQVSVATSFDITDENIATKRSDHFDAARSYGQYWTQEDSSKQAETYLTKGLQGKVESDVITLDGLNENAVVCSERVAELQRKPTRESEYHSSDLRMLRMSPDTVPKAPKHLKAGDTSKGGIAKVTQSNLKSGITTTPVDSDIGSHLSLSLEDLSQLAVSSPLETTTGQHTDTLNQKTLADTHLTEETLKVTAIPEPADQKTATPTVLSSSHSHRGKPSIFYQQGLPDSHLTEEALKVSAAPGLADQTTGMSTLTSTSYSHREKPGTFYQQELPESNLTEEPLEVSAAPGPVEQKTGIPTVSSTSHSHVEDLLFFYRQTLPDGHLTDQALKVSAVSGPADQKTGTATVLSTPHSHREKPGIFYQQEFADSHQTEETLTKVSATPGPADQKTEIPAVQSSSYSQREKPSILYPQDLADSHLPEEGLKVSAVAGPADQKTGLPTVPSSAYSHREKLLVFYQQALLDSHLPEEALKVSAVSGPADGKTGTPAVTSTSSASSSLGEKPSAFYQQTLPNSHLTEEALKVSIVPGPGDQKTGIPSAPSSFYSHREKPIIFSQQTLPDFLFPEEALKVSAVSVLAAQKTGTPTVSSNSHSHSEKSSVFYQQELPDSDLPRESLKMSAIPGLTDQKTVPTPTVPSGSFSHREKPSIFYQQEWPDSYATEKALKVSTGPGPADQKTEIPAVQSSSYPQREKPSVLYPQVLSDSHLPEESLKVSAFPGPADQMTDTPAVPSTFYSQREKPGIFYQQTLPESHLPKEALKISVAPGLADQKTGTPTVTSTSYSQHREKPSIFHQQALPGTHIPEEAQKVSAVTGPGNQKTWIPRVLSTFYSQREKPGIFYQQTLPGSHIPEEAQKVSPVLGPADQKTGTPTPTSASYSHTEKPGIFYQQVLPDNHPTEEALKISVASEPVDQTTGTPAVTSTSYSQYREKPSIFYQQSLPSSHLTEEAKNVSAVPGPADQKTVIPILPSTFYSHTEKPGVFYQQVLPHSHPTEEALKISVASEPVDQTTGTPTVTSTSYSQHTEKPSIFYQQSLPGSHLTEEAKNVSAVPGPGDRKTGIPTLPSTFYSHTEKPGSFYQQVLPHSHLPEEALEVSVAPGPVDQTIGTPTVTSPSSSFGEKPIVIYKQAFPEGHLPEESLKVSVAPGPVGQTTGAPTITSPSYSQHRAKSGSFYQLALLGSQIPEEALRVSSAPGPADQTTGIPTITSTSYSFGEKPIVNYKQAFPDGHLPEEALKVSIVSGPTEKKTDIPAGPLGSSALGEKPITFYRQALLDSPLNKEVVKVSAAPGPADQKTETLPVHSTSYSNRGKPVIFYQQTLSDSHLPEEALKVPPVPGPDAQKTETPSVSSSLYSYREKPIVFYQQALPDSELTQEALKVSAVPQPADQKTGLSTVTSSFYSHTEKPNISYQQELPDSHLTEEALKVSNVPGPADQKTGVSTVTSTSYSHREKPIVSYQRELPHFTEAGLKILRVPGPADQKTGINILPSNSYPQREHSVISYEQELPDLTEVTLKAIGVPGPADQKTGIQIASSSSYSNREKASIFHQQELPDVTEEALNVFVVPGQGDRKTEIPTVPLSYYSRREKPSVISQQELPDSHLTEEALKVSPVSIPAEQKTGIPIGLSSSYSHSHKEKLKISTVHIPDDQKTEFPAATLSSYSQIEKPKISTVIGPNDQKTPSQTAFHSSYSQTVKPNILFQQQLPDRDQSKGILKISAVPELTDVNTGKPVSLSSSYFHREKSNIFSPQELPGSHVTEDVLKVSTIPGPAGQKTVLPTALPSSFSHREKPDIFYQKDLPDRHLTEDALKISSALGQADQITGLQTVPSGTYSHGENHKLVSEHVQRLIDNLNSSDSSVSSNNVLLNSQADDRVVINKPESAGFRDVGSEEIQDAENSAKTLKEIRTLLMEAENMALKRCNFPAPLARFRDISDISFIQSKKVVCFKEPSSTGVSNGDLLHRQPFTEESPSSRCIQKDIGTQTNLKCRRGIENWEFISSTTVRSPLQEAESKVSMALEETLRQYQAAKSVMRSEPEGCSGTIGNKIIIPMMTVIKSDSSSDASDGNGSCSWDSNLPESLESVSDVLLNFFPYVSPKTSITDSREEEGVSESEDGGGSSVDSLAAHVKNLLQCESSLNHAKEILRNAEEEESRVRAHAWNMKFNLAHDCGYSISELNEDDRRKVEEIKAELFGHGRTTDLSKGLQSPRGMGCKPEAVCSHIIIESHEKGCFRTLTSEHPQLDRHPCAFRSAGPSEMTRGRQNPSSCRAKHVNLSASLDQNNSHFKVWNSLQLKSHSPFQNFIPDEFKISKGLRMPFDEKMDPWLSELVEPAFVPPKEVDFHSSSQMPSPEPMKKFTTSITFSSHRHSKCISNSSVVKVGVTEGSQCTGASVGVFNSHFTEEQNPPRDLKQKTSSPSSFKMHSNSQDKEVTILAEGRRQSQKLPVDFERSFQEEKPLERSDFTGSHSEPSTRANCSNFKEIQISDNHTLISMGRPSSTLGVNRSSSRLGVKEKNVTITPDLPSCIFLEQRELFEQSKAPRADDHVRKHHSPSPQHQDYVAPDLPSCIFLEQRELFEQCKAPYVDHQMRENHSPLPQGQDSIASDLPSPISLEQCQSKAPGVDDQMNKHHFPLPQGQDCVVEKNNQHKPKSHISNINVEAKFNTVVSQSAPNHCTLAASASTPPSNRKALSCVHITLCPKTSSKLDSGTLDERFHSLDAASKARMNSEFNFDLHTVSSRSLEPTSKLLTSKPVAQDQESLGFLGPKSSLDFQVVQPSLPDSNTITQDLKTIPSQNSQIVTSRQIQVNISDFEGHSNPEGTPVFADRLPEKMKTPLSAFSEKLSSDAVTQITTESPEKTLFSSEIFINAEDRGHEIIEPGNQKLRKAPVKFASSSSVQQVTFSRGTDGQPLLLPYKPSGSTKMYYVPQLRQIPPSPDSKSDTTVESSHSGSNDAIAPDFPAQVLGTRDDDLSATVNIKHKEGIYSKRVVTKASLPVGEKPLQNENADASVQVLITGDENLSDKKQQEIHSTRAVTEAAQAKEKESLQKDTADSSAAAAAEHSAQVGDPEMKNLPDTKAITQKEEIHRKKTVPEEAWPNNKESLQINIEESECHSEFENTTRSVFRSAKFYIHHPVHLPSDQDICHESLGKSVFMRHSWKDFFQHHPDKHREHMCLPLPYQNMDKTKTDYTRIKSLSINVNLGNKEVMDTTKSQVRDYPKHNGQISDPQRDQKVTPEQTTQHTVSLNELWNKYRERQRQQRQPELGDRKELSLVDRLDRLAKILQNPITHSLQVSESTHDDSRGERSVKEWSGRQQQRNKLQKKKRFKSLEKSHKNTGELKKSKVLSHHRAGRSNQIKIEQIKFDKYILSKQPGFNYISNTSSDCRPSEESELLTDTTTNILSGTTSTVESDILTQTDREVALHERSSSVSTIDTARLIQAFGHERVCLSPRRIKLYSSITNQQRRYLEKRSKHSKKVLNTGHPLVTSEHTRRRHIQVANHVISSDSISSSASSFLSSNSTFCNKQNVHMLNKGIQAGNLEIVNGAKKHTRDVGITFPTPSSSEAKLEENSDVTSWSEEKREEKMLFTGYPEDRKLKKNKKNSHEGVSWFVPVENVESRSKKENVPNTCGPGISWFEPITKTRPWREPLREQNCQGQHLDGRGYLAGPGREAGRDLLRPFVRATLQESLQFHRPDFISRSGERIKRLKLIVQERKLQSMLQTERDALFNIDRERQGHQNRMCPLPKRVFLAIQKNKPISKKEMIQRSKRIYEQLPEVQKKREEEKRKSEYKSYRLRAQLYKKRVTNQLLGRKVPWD
UniProt Q8WUU5: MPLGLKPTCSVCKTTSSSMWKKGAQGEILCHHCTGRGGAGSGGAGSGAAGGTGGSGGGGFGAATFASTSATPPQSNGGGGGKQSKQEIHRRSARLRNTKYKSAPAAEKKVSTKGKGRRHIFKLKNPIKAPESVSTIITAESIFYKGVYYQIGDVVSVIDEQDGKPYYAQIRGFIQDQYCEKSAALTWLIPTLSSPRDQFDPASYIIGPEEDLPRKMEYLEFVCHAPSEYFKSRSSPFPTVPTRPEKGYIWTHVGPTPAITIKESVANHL

The targets below were run with CN[C@@H]1C[C@H]2O[C@@](C)([C@@H]1OC)n1c3ccccc3c3c4c(c5c6ccccc6n2c5c31)C(=O)NC4 [staurosporine] (assay: log2 fold change of tryptic peptide abundance, ligand vs vehicle (limited proteolysis) (log2 ratio); higher = more trypsin-susceptible (destabilized)). Settings: ligand concentration: 20 uM; sample: K562 cleared lysate; digestion: 4 min, 22 C (HT-PELSA RT4min, Orbitrap Astral).

| Target | log2 fold change |
| --- | --- |
| RSC1A1 (peptide sequence: DLGQGIQNSVTDRPETR, peptide start residue: 523) (UniProt Q92681) | -0.282 |
| TRUB1 (peptide sequence: GVLVVGIGSGTK, peptide start residue: 126) (UniProt Q8WWH5) | -0.188 |
| UniProt Q92616 (peptide sequence: SKADYTSHLR, peptide start residue: 2182) | 0.323 |
| SPRYD4 (peptide sequence: DSCIGVDDR, peptide start residue: 112) (UniProt Q8WW59) | 0.258 |
| UniProt Q8TBZ6 (peptide sequence: ACESASHDNQSVR, peptide start residue: 284) | -0.344 |
| IP6K1 (peptide sequence: EFTPEYK, peptide start residue: 68) (UniProt Q92551) | -0.305 |
| TRAF3IP1 (peptide sequence: NTEDRGDAEIKER, peptide start residue: 164) (UniProt Q8TDR0) | -0.811 |
| DPF1 (peptide sequence: EAIEHCR, peptide start residue: 18) (UniProt Q92782) | -0.635 |
| SMCR8 (peptide sequence: ANELASVEK, peptide start residue: 233) (UniProt Q8TEV9) | -0.381 |
| PNPT1 (peptide sequence: IKHPTALGLEVGQEIQVK, peptide start residue: 717) (UniProt Q8TCS8) | -0.252 |
| UniProt Q8WXD9 (peptide sequence: MTPEDLTAIGVTKPGHR, peptide start residue: 523) | 0.355 |
| USP33 (peptide sequence: SRPGSVVPTTLFQGIK, peptide start residue: 243) (UniProt Q8TEY7) | 0.169 |
| CHAC2 (peptide sequence: NLVPEEADEHLFALEK, peptide start residue: 154) (UniProt Q8WUX2) | 0.108 |
| TSEN15 (peptide sequence: LTDGFMLPDPQNISLR, peptide start residue: 155) (UniProt Q8WW01) | 0.115 |
| UniProt Q92567 (peptide sequence: TYQASSAAFR, peptide start residue: 93) | -0.122 |
| NUDT8 (peptide sequence: CDPADQDVVHTALR, peptide start residue: 71) (UniProt Q8WV74) | -0.102 |
| ANKS1A (peptide sequence: IMSSIGEGIDFSQER, peptide start residue: 674) (UniProt Q92625) | -0.728 |
| RTF1 (peptide sequence: LTQIQESQVTSHNKER, peptide start residue: 252) (UniProt Q92541) | 0.284 |
| ELMO1 (peptide sequence: IQPEILELIK, peptide start residue: 540) (UniProt Q92556) | 0.472 |

Reformatted bar-delimited: entries from further up.
Target | log2 fold change
UniProt Q92616 (peptide sequence: SKADYTSHLR, peptide start residue: 2182) | 0.323
UniProt Q8WXD9 (peptide sequence: MTPEDLTAIGVTKPGHR, peptide start residue: 523) | 0.355
NUDT8 (peptide sequence: CDPADQDVVHTALR, peptide start residue: 71) (UniProt Q8WV74) | -0.102

(next part)

| Target | log2 fold change |
| --- | --- |
| SMAP2 (peptide sequence: LEPVVFEK, peptide start residue: 153) (UniProt Q8WU79) | -0.139 |
| GPT2 (peptide sequence: AGEIELELQR, peptide start residue: 72) (UniProt Q8TD30) | 0.168 |
| GTSF1 (peptide sequence: NHPDVASK, peptide start residue: 40) (UniProt Q8WW33) | -0.181 |
| THAP4 (peptide sequence: GAAGWSPSSSGNPMAKPESR, peptide start residue: 123) (UniProt Q8WY91) | 0.33 |
| UniProt Q8TD23 (peptide sequence: NVILENYR, peptide start residue: 31) | -0.138 |
| UniProt Q8WVK7 (peptide sequence: QTDLELSPLTK, peptide start residue: 95) | -0.596 |
| ALMS1 (peptide sequence: VSAVSGPADQK, peptide start residue: 695) (UniProt Q8TCU4) | -0.333 |
| SEC14L1 (peptide sequence: EIMCQSLTWR, peptide start residue: 296) (UniProt Q92503) | 0.479 |
| UniProt Q8WXA9 (peptide sequence: EHNKEPDSSVSK, peptide start residue: 462) | -0.239 |
| UniProt Q8WVS4 (peptide sequence: CRDPDQDAR, peptide start residue: 57) | 0.86 |
| UniProt Q8TE57 (peptide sequence: FRGRHYK, peptide start residue: 30) | 0.226 |
| CCDC12 (peptide sequence: KPDWDLK, peptide start residue: 111) (UniProt Q8WUD4) | -0.207 |
| UniProt Q8WTR7 (peptide sequence: FICGSTLK, peptide start residue: 524) | -0.0163 |
| UniProt Q8TCY9 (peptide sequence: GHSDLGEVAPEIK, peptide start residue: 14) | 0.492 |
| GATAD1 (peptide sequence: KGAQGEILCHHCTGR, peptide start residue: 22) (UniProt Q8WUU5) | -0.16 |
| DDX1 (peptide sequence: DNTRPGANSPEMWSEAIK, peptide start residue: 473) (UniProt Q92499) | -0.531 |
| UniProt Q8WVB3 (peptide sequence: RPSVTPLVWDDMLR, peptide start residue: 189) | -0.825 |
| PIEZO1 (peptide sequence: VGPTDGTPEPQVELRPR, peptide start residue: 1848) (UniProt Q92508) | 0.177 |
